## Cleaved PARP in drug-treated melanoma cells

From a melanoma drug combination screen (doi:10.1371/journal.pone.0140310); values rounded.

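Human melanoma cell lines in 1,536-well plates were treated with a pair of drugs for 72 h, then fixed, stained and imaged. Each value is the cleaved-PARP-positive fraction of nuclei relative to DMSO-treated wells, in %, so that 100 equals the control and higher values mean more apoptosis. Concentrations were fixed for each drug; these are the higher of two levels. The file gives one value for each pair and line, without errors, so small differences may be noise. The marker varies much from line to line, for technical or biological reasons.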 Only some of the drugs and lines screened are listed, without regard to their results.

Drug key:
GW9662 (10 µM): O=C(Nc1ccccc1)c1cc([N+](=O)[O-])ccc1Cl
SU6656 (2 µM): CN(C)S(=O)(=O)c1ccc2c(c1)/C(=C/c1cc3c([nH]1)CCCC3)C(=O)N2
nilutamide (5 µM): CC1(C)NC(=O)N(c2ccc([N+](=O)[O-])c(C(F)(F)F)c2)C1=O
ENMD-2076 (0.2 µM): Cc1cc(Nc2cc(N3CCN(C)CC3)nc(/C=C/c3ccccc3)n2)n[nH]1
GSK650394 (0.8 µM): O=C(O)c1ccc(-c2c[nH]c3ncc(-c4ccccc4)cc23)cc1C1CCCC1
sunitinib (2 µM): CCN(CC)CCNC(=O)c1c(C)[nH]c(/C=C2\C(=O)Nc3ccc(F)cc32)c1C
dovitinib (0.5 µM): CN1CCN(c2ccc3nc(-c4c(N)c5c(F)cccc5[nH]c4=O)[nH]c3c2)CC1
GW441756 (2 µM): Cn1cc(/C=C2\C(=O)Nc3cccnc32)c2ccccc21

Combination | SK-MEL-30
nilutamide + GW441756 | 174
GSK650394 + sunitinib | 244
ENMD-2076 + dovitinib | 159
dovitinib + GW9662 | 112
SU6656 + GSK650394 | 98.1
GSK650394 + dovitinib | 116
sunitinib + nilutamide | 152
GW9662 + GSK650394 | 93.9
ENMD-2076 + GW441756 | 102
GW9662 + GW441756 | 203
GSK650394 + GW441756 | 113
sunitinib + dovitinib | 150
SU6656 + sunitinib | 123
nilutamide + ENMD-2076 | 93.6
SU6656 + dovitinib | 133
SU6656 + ENMD-2076 | 44.7
ENMD-2076 + GSK650394 | 47.3
ENMD-2076 + GW9662 | 145
GW441756 + dovitinib | 63.2
SU6656 + GW441756 | 267
SU6656 + nilutamide | 73.7

2 of the entries, repeated:

Combination,SK-MEL-30
GSK650394 + sunitinib,244
SU6656 + nilutamide,73.7